Laboratory results taken from patent US20140087993A1 (TUFTS MEDICAL CENTER, published 2014).
No constants are given. Whether binding was seen depends on the method and setting. In cells and extracts the contact can be indirect. Some binding calls cover weakened binding; strength is not graded here.

By UniProt entry, the sequences of proteins in these tests, tags left out. Residues count along the entry.
UniProt P55085, residues 26-397: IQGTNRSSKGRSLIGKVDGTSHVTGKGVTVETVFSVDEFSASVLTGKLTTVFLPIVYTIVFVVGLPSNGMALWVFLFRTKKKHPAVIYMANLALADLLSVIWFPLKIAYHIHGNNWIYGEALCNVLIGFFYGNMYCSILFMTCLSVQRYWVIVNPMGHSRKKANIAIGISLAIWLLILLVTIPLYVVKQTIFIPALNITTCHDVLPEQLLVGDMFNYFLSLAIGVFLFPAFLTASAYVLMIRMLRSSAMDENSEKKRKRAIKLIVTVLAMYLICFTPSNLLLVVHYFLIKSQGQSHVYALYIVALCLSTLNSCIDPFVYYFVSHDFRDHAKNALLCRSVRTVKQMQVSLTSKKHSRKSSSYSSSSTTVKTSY

Tests used:
T7-PAR2 [1] = biological target: T7-PAR2 (UniProt P55085); experiment: co-immunoprecipitation from COS7 cells on T7-agarose beads, myc immunoblot
T7-PAR2 [2] = biological target: T7-PAR2 (UniProt P55085); experiment: co-immunoprecipitation

binding (T7-PAR2 [1]): binds
binding (T7-PAR2 [2]): binds
Substance: PAR2-myc (from UniProt P55085 26-397) (receptor)
